Data from patent publication US20020128269A1, “Substituted heterocyclic compounds for treating multidrug resistance” (priority 2000, published 2002).
At least one read-out could not be matched to a standard name with certainty.

System: NIH-MDR1-G185 cells
Test: Fluorescent Substrate Accumulation Assay (BODIPY-FL Taxol accumulation)
Assay type: cell-based
Settings: fluorescence in NIH-MDR1-G185 cells in presence / absence of modulator; BODIPY-FL Taxol 500 nM, 40 min at 37° C; modulator final concentration of 10 microliters (so in the source)
Procedure: NIH-MDR1-G185 cells (obtained from M. Gottesman, NIH) were harvested and resuspended in RPMI-1640 containing L-glutamine, 10% Cosmic Calf Serum and penicillin-streptomycin. Cell suspension aliquots of 175 microliters (1×10^5 cells) were added to individual wells of a 96 well microtiter plate and preincubated for 15 min at 37° C with 20 microliters MDR modulator diluted in cell culture media to give a final concentration of 10 microliters. Control wells received no modulating agent. BODIPY-FL Taxol (Molecular Probes, Eugene, Oreg.) was added to each well in 10 microliter aliquots to give a final concentration of 500 nM and cells were incubated for 40 min at 37° C. Cells were centrifuged at 100× g for 5 min at 4° C. and the cell pellet washed with 200 microliters cold PBS to remove fluorescent medium from wells. Cells were centrifuged once more, media removed, and cells resuspended in 200 microliters cold PBS. Fluorescence accumulation was measured in a fluorescence plate reader fitted with an excitation filter of 485 nm and an emission filter of 538 nm. BODIPY-FL taxol accumulation in the cells was calculated as follows:
Accumulation Index=(fluorescence in NIH-MDR1-G185 cells in the presence of modulator )/(fluorescence in NIH-MDR1-G185 cells in absence of modulator)
Accumulation Index of various compounds prepared above was tested according to the method in Reference Example 3.

With `O=C(NC(CCCc1ccccc1)CCCc1ccccc1)C1CN(C[C@@H](O)COc2cccc3ncccc23)CCN1C(=O)c1ccccc1` (stereo partly drawn) [Compound 33, 1-(Benzoyl)-4-{1-[2-(R)-hydroxy-3-(quinolin-5-yloxy)-propyl]}-piperazine-2-carboxylic Acid [4-phenyl-1-(3-phenyl-propyl)-butyl]-amide] the “Accumulation Index” value was 10.

In the case of `COc1cc(C(=O)N2CCN(C[C@@H](O)COc3cccc4ncccc34)CC2C(=O)NC(CCCc2ccccc2)CCCc2ccccc2)cc(OC)c1OC` (stereo partly drawn) [Compound 32, 1-(3,4,5-Trimethoxybenzoyl)-4-{1-[2-(R)-hydroxy-3-(quinolin-5-yloxy)-propyl]}-piperazine-2-carboxylic Acid [4-phenyl-1-(3-phenyl-propyl)-butyl]-amide], the “Accumulation Index” value is reported as 13.

With `COc1ccc(S(=O)(=O)N2CCN(C(=O)OCc3ccccc3)CC2C(=O)N2CCN(C(c3ccccc3)c3ccccc3)CC2)cc1OC` (centres unmarked) [Compound 6, 1-(3,4-Dimethoxybenzenesulfonyl)-4-(benzyloxycarbonyl)piperazine-2-carboxylic Acid (4-benzhydrylpiperazine-1-yl)amide] the “Accumulation Index” value was 3.

For `O=C(NC(CCCc1ccccc1)CCCc1ccccc1)C1CN(C[C@@H](O)COc2cccc3ncccc23)CCN1C(=O)c1cc2ccccc2cn1` (stereo partly drawn) [Compound 35, 1-(3-Isoquinolinecarbonyl)-4-{1-[2-(R)-hydroxy-3-(quinolin-5-yloxy)-propyl]}-piperazine-2-carboxylic Acid [4-phenyl-1-(3-phenyl-propyl)-butyl]-amide], the “Accumulation Index” value was 6.

For `COc1ccc(S(=O)(=O)N2CCN(C[C@@H](O)COc3cccc4ncccc34)CC2C(=O)N2CCN(c3ccccc3C)CC2)cc1OC` (stereo partly drawn) [Compound 22, 1-(3,4-Dimethoxybenzenesulfonyl)-4-{1-[2-(R)-hydroxy-3-(quinolin-5-yloxy)-propyl]}-piperazine-2-carboxylic Acid [1-(o-tolyl)piperazine-4-yl]amide], the “Accumulation Index” value was 7.
